Earlier results, collected in patent publication US12667551B2, “Renal function maintenance and protection agent, and method for evaluating effect thereof” (MARUHA NICHIRO CORPORATION, priority 2018, dated 2026).
At least one compound was matched to its structure with a doubt left.

Test system: glomerulonephritis model rats
Details: Patent Document 1; RSA antigen-antibody complex model; cited from earlier work

**Q.** Which “Reduction of glomerular function-renal function” value does the source give for `CC/C=C\C/C=C\C/C=C\C/C=C\C/C=C\C/C=C\CCC(=O)O` [docosahexaenoic acid] here?
**A.** inhibitory effect
